The list shows a part of the results. Most values lie at the level of the controls, where differences are scatter.
These targets were tested with CN[C@@H]1C[C@H]2O[C@@](C)([C@@H]1OC)n1c3ccccc3c3c4c(c5c6ccccc6n2c5c31)C(=O)NC4 [staurosporine] (assay: log2 fold change of tryptic peptide abundance, ligand vs vehicle (limited proteolysis) (log2 ratio); higher = more trypsin-susceptible (destabilized)). Details: ligand concentration: 20 uM; sample: mouse liver crude lysate; replicate design: treated separately.

Sequences of proteins named here, by UniProt entry; tags and fusion partners are left off. A change or cut given only in a name is not applied to a line headed by its entry.
UniProt Q99LJ6: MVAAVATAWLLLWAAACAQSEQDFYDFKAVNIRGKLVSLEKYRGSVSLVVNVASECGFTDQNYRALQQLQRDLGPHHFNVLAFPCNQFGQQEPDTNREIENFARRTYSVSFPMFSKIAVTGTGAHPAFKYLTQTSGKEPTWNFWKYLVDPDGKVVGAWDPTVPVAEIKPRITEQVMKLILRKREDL
UniProt Q9CQL7: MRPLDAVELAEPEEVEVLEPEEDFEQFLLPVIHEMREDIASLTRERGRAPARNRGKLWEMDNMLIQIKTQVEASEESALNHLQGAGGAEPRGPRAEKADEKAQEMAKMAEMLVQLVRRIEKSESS
UniProt Q9CQC8: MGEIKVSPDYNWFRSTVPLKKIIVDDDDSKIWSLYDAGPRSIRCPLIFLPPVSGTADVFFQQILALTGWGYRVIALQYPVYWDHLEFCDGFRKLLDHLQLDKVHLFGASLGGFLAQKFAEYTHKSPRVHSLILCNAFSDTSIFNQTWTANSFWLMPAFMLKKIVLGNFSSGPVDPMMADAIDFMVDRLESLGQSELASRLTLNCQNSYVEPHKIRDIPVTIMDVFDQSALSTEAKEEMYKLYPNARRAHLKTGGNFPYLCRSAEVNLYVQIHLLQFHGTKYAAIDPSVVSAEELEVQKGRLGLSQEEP

**Q.** How did the log2 fold change turn out when “UniProt Q9CQL4 (peptide sequence: LTDRYWR, peptide start residue: 14)” was run?
**A.** 0.406

**Q.** With “UniProt Q99LJ6 (peptide sequence: TYSVSFPMFSK, peptide start residue: 106)” as the target, how does the log2 fold change read?
**A.** 0.294

**Q.** With “UniProt Q9CQL7 (peptide sequence: EDIASLTR, peptide start residue: 37)” as the target, how does the log2 fold change read?
**A.** 0.0422

**Q.** How did the log2 fold change turn out when “UniProt Q9CQC8 (peptide sequence: LYPNARRAHLK, peptide start residue: 241)” was run?
**A.** 0.287

From the supplement of paper PMC12819154, “High-throughput peptide-centric local stability assay extends protein–ligand identification to membrane proteins, tissues and bacteria” (Nature Structural & Molecular Biology, 2025)
